PubChem BioAssay AID1259254 | NCATS, 2017

Test: 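Genome-wide screen for genes that prevent DNA re-replication in cancer cells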 (primary screen)
Cell system: human HCT116 colorectal cancer cells
Reagent: single siRNA against human genes
Time to read-out: 3 days
Read-out: 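Nuclei stained with Hoechst and imaged; cell-cycle phase assigned by DNA content; G2 share scaled per plate, non-targeting siRNA 0%, GMNN siRNA 100%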
Scale: G2 robust z-score and G2 cells, % of GMNN control: higher = more G2 cells, more excess DNA replication
Active means: 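Active siRNAs have a G2 robust z of 5 or more median absolute deviations over the median, which in these data means about 38% or higher of GMNN control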
The deposit covers about 59,000 reagents; shown is a random part of them. About 1,550 of them (2.6%) count as active. 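G2 share is only a proxy for re-replication; each gene was hit by three separate siRNAs, and active genes were retested.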 Unmarked entries are inactive. The numbers tell different reagents against one gene apart. Not all columns of the deposit are shown. The record does not give: the amount of reagent.

Target gene | siRNA no. | G2 robust z-score | G2 cells, % of GMNN control
LUZP2 (GeneID 338645) | 1 | -1.04 | -4.33
LUZP2 (GeneID 338645) | 2 | 2.73 | 22.2
LUZP2 (GeneID 338645) | 3 | 1.02 | 10.2
FOSL1 (GeneID 8061) | 1 | 0.971 | 9.8
FOSL1 (GeneID 8061) | 2 | -0.998 | -4.05
FOSL1 (GeneID 8061) | 3 | -1.04 | -4.32
TDRD3 (GeneID 81550) | 1 | 0.0977 | 3.65
TDRD3 (GeneID 81550) | 2 | 1.99 | 17
TDRD3 (GeneID 81550) | 3 | 0.223 | 4.54
MESTP3 (GeneID 645641) | 1 | 1.61 | 14.3
MESTP3 (GeneID 645641) | 2 | 0.141 | 3.96
MESTP3 (GeneID 645641) | 3 | 1.65 | 14.6
ALDH3A1 (GeneID 218) | 1 | -0.343 | 0.554
ALDH3A1 (GeneID 218) | 2 | -1.18 | -5.34
ALDH3A1 (GeneID 218) | 3 | 0.0274 | 3.16

3 successive entries already listed:
Target gene | siRNA no. | G2 robust z-score | G2 cells, % of GMNN control
MESTP3 (GeneID 645641) | 1 | 1.61 | 14.3
MESTP3 (GeneID 645641) | 2 | 0.141 | 3.96
MESTP3 (GeneID 645641) | 3 | 1.65 | 14.6

Continued.
Target gene | siRNA no. | G2 robust z-score | G2 cells, % of GMNN control
CDC25B (GeneID 994) | 1 | 0.859 | 9.01
CDC25B (GeneID 994) | 2 | -0.201 | 1.55
CDC25B (GeneID 994) | 3 | 2.06 | 17.5
PCDHA5 (GeneID 56143) | 1 | 0.48 | 6.34
PCDHA5 (GeneID 56143) | 2 | -0.562 | -0.985
PCDHA5 (GeneID 56143) | 3 | -0.134 | 2.03
VPS37D (GeneID 155382) | 1 | 0.44 | 6.06
VPS37D (GeneID 155382) | 2 | 0.386 | 5.68
VPS37D (GeneID 155382) | 3 | -0.133 | 2.03
R3HDML (GeneID 140902) | 1 | -0.33 | 0.643
R3HDML (GeneID 140902) | 2 | -0.427 | -0.0353
R3HDML (GeneID 140902) | 3 | 0.637 | 7.45
DDX20 (GeneID 11218) | 1 | -0.56 | -0.969
DDX20 (GeneID 11218) | 2 | -0.00265 | 2.95
DDX20 (GeneID 11218) | 3 | 4.13 | 32
